The text below walks through data of paper PMC7862700.

The chains behind the UniProt entries cited, without tags or fusion partners. Where a name states a change or a piece, a line headed by the entry shows the natural chain unless it says otherwise.
UniProt Q9Y603: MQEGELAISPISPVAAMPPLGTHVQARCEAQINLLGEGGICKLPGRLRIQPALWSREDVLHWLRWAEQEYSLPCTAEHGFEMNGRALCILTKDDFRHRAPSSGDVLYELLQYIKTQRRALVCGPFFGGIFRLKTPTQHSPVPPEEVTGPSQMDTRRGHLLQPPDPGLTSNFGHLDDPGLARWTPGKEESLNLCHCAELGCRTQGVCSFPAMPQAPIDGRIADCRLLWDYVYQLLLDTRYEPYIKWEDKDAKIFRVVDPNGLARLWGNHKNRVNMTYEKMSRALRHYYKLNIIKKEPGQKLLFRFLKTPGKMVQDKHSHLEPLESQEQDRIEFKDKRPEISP

Only a part is listed here, and it is no random draw. At the low end of the ranking the order means little.

The assay deals with ETV7 (UniProt Q9Y603). The experiment in a line: DAPPL (digital affinity profiling via proximity ligation, sequencing). To be noted: 10 mM Tris-HCl pH 7.5, 50 mM NaCl, 1 mM DTT, 4% glycerol, room temperature, 30 min; GST-TFs on glutathione beads, 16-mer random dsDNA library, 0.1% …; high values mean tight binding; double strand, one strand shown; scale: fold enrichment (6-mer frequency, TF over GST control).
In turn, TCCTTG showed a binding signal of 1.22.

For CCGTAA, the binding signal turned out to be 0.979.

With GAACTC, the binding signal worked out at 1.29.

In turn, CCCGCA came in with a binding signal of 1.31.

With AAAAGA, the binding signal turned out to be 1.1.

Turning to CTTCTG, the binding signal is 1.2.

The sequence GTCTTT yielded a binding signal of 1.28.

Turning to GACCTC, the binding signal turned out to be 1.33.

In turn, CCTGAT gave a binding signal of 1.29.

Turning to AGCCTC, the binding signal is 1.31.

Sequence CTCTGG returned a binding signal of 1.33.

Take AATAGA: the binding signal is 1.17.

Consider CCCGGA, for which the binding signal was 2.48.

Sequence GTCTCA gave a binding signal of 1.13.

As to TTTAAA, the binding signal came out at 1.36.

The sequence TGCACT registered a binding signal of 1.42.

Regarding TATGTA, the binding signal was found to be 1.35.

Sequence GTAACA had a binding signal of 1.08.

GATACG: the binding signal is 0.99.

Sequence ACCCTA gave a binding signal of 1.27.

For the sequence ACCACC, the binding signal is 0.995.

On to AAAACT, for which the binding signal turned out to be 1.29.

Sequence ACTTTG came in with a binding signal of 1.11.

AACCTT had a binding signal of 1.29.

Consider ATGGCC, for which the binding signal was 1.44.

ACTTCC showed a binding signal of 7.8.

For the sequence CCATGC, the binding signal is 1.1.

In turn, ACCTAC came in with a binding signal of 1.09.

The sequence TCCCAC showed a binding signal of 1.41.

The sequence GCATTC had a binding signal of 0.976.

ATGATA displayed a binding signal of 1.16.

The sequence GCCTCC had a binding signal of 1.29.

Take ATGGAC: the binding signal was found to be 1.02.

In turn, ATGCAA registered a binding signal of 1.19.

The sequence CTTATG gave a binding signal of 1.47.

For TCTTAC, the binding signal amounted to 1.31.

The sequence CTACTC registered a binding signal of 1.13.

Sequence ACCCGC came in with a binding signal of 1.18.

The sequence TTTACG had a binding signal of 1.25.
